No constants are given. Whether binding was seen depends on the method and setting. Some binding calls cover weakened binding; strength is not graded here.

The results in this text go back to patent publication US20040244069A1.

Test [1] has as its target T1, ligand binding domain of LRP5 (human) (UniProt O75197).
T1 sequence: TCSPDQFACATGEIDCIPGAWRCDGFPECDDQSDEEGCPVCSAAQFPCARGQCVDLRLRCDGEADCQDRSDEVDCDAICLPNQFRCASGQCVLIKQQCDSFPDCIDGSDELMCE
Briefly: yeast two hybrid screen with the LRP5 ligand binding domain.

In test [2] the target is T1, ligand binding domain of LRP5 (human). Briefly: yeast two hybrid.

B1: dickkopf-1 (Dkk-1) (ligand, UniProt O94907 32-266, looked up)
chain: TLNSVLNSNAIKNLPPPLGGAAGHPGSAVSAAPGILYPGGNKYQTIDNYQPYPCAEDEECGTDEYCASPTRGGDAGVQICLACRKRRKRCMRHAMCCPGNYCKNGICVSSDQNHFRGEIEETITESFGNDHSTLDGYSRRTTLSSKMYHTKGQEGSVCLRSSDCASGLCCARHFWSKICKPVLKEGQVCTKHRRKGSHGLEIFQRCYCGEGLSCRIQKDHHQASNSSRLHTCQRH
Take B1: the binding result in test [1] and in test [2] was “binds” in each case.
